In the supplement of paper PMC8104966:
± gives the standard deviation of the averaged measurements. The list shows a part of the results. This data set is noisy: repeats of one test often differ as much as different tests do.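 U2OS cells carrying ACE2 were mixed with U2OS cells carrying full-length spike, and fusion was scored by imaging as the share of nuclei showing both cell types' fluorescent markers. A compound counts as an inhibitory hit when it is non-toxic and its fusion z-score falls below -3, meaning more than three standard deviations below the plate's DMSO wells.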

Tested on: U2OS ACE2 x SARS-CoV-2 spike co-culture
Experiment: cell-cell fusion (fraction fused) z-score vs plate DMSO control; higher = more fusion
Conditions: 30 µM; 5 h; toxicity class: non-toxic, passed QC

Row | SMILES | cell-cell fusion (z-score)
1 | O=C(/C=C/c1ccc(O)c(O)c1)c1ccc(O)cc1O [Butein] | inactive: -1.35
2 | C[C@H]1c2cccc(O)c2C(=O)C2=C(O)[C@]3(O)C(=O)C(C(N)=O)=C(O)[C@@H](N(C)C)[C@@H]3[C@@H](O)[C@@H]21.Cl | inactive: 1.25
3 | CC(=O)O[C@@H]1CC[C@]2(C)C3CC[C@]4(C)C(=O)CCC4C3CC[C@H]2C1 (stereo partly specified) | inactive: 2.07
4 | Cn1c(=O)c2c(ncn2CC(O)CO)n(C)c1=O (stereo unspecified) [Diprophylline] | inactive: 3.47
5 | CC1=C(/C=C/C(C)=C/C=C/C(C)=C/CO)C(C)(C)CCC1 | inactive: 2.99
6 | COc1cc(C(=O)NS(=O)(=O)c2ccccc2C)ccc1Cc1cn(C)c2ccc(NC(=O)OC3CCCC3)cc12 [Zafirlukast] | inactive: 4.72
7 | CCCCS(=O)(=O)N[C@@H](Cc1ccc(OCCCCC2CCNCC2)cc1)C(=O)O.Cl.O [Tirofiban hydrochloride monohydrate] | inactive: 1.11
8 | N#C/C(=C\c1cccc(O)c1)C(=O)O [alpha-CYANO-3-HYDROXYCINNAMIC ACID] | inactive: 2.19
9 | Br.C=CCN1CCc2c(cc(O)c(O)c2Br)[C@@H](c2ccccc2)C1 [R(+)-6-Bromo-APB hydrobromide] | inactive: -0.11
10 | CC(C)=CCCC(C)[C@@H]1CC[C@]2(C)C3=C(CC[C@@]12C)C1(C)CC[C@H](O)C(C)(C)C1CC3 (stereo partly specified) | inactive: 1.77
11 | COc1cc2c(NC3CCN(C)CC3)nc(N3CCCN(C)CC3)nc2cc1OCCCN(C)C | inactive: 3.26
12 | CC(CN1c2ccccc2Sc2ccccc21)N(C)C.Cl (stereo unspecified) [Promethazine hydrochloride] | inactive: 0.0397
13 | Cl.OC(CCN1CCCC1)(c1ccccc1)C1CCCCC1 (stereo unspecified) [Procyclidine hydrochloride] | inactive: 1.74
14 | CN1CCN(c2cc3c(cc2F)c(=O)c(C(=O)O)cn3-c2ccc(F)cc2)CC1.Cl | inactive: 3.06
15 | COc1ccc2[n-]c([S@@](=O)Cc3ncc(C)c(OC)c3C)nc2c1.COc1ccc2[n-]c([S@@](=O)Cc3ncc(C)c(OC)c3C)nc2c1.[Mg+2] [Esomeprazole Magnesium] | inactive: 2.53
16 | CSc1ccc2c(c1)N(CCC1CCCCN1C)c1ccccc1S2.Cl (stereo unspecified) | inactive: 0.254
17 | CC(C)=CCC/C(C)=C/COc1ccc2ccc(=O)oc2c1 [Auraptene] | inactive: 1.8
18 | Cl.Fc1ccc([C@@H]2CCNC[C@H]2COc2ccc3c(c2)OCO3)cc1 [Paroxetine hydrochloride] | inactive: 1.82
19 | CNCCC(Oc1ccc(C(F)(F)F)cc1)c1ccccc1.Cl (stereo unspecified) [Fluoxetine hydrochloride] | inactive: -1.43
20 | Nc1nc(OCc2ccccc2)c2nc[nH]c2n1 [O6-benzylguanine] | inactive: 0.00635
21 | OC[C@@H](O)[C@@H](O)[C@H](O)[C@@H](O)CO [D-Sorbitol] | inactive: 2.25
22 | Cc1cccc(C)c1NC1=NCCCS1.Cl [Xylazine hydrochloride] | inactive: 2.16
23 | CCCCNc1ccc(C(=O)OCCOCCOCCOCCOCCOCCOCCOCCOCCOC)cc1 | inactive: 0.917
24 | COC(=O)C[C@H]1C(C)(C)C(=O)[C@@H]2CC3C4=CC(=O)O[C@@H](c5ccoc5)[C@]4(C)CCC3[C@@]1(C)C2=O (stereo partly specified) | inactive: 2.28

Row | SMILES | cell-cell fusion (z-score)
25 | CN1CCN(C2=Nc3ccccc3Oc3ccc(Cl)cc32)CC1.O=C(O)CCC(=O)O [Loxapine succinate salt] | inactive: 3.51
26 | CC1(C)NC(=O)N(c2ccc([N+](=O)[O-])c(C(F)(F)F)c2)C1=O [Nilutamide] | inactive: 1.09
27 | COc1cc(O)c2c(=O)c3cc(OC)c(OC)cc3oc2c1 | inactive: 2.52
28 | OCC(S)CS (stereo unspecified) | -3.15 ± 2.1
29 | OCC(S)CS (stereo unspecified) [Dithiopropanol] | inactive: 0.502
30 | CCCNCC(O)COc1ccccc1C(=O)CCc1ccccc1.Cl (stereo unspecified) | inactive: 0.775
31 | CCCNCC(O)COc1ccccc1C(=O)CCc1ccccc1.Cl (stereo unspecified) [Propafenone hydrochloride] | inactive: 2.83
32 | Cc1ccnc(NS(=O)(=O)c2ccc(N)cc2)n1 [Sulfamerazine] | inactive: 2.28
33 | NCCO.NCCO.NCCO.NCCO.O=C(O)CN(CCN(CC(=O)O)CC(=O)O)CC(=O)O | inactive: 1.35
34 | Cl.N=C(N)c1ccc(CS(=O)(=O)F)cc1 [4-Amidinophenylmethanesulfonyl fluoride hydrochloride] | inactive: 1.3
35 | Cc1nccn1CC1CCc2c(c3ccccc3n2C)C1=O (stereo unspecified) | inactive: 1.46
36 | CNC(=O)c1ccc(N2C(=S)N(c3ccc(C#N)c(C(F)(F)F)c3)C(=O)C2(C)C)cc1F [MDV3100 (Enzalutamide)] | inactive: 0.942
37 | CC(=O)O[C@@H]1CC[C@@]2(C)C(CC[C@]3(C)C2CC=C2C4CC(C)(C)CC[C@]4(C(=O)O)CC[C@]23C)C1(C)C (stereo partly specified) | inactive: 1.56
38 | C=C(c1ccc(C(=O)O)cc1)c1cc2c(cc1C)C(C)(C)CCC2(C)C [Bexarotene] | inactive: 2.04
39 | Cl.NCCc1ccc(O)c(O)c1 | inactive: -1.46
40 | OC[C@H]1O[C@H](n2cnc3c2N=CNC[C@H]3O)C[C@H]1O [Pentostatin] | inactive: 0.439
41 | COc1ccc([C@@H](C)C(=O)c2ccc(O)cc2O)cc1 | inactive: 3.26
42 | C[C@@H](c1ncncc1F)[C@](O)(Cn1cncn1)c1ccc(F)cc1F [Voriconazole] | inactive: 1.96
43 | COc1ccc2nc(S(=O)Cc3ncc(C)c(OC)c3C)[nH]c2c1 (stereo unspecified) | inactive: -2.04
44 | CC#CCn1c(N2CCC[C@@H](N)C2)nc2c1c(=O)n(Cc1nc(C)c3ccccc3n1)c(=O)n2C.Cl | inactive: 2.57
45 | CNC(=O)c1ccc(N2C(=S)N(c3ccc(C#N)c(C(F)(F)F)c3)C(=O)C2(C)C)cc1F [Enzalutamide] | inactive: 1.61
46 | O=C1c2ccccc2-c2n[nH]c3cccc1c23 | inactive: 2.06
47 | COc1cc(O)c2c(=O)c(O)c(-c3ccccc3)oc2c1 | inactive: 1.95
48 | CN1CCCN=C1/C=C/c1cccc(O)c1.O=C(O)c1cc2ccccc2c(Cc2c(O)c(C(=O)O)cc3ccccc23)c1O | inactive: 2.84

Row | SMILES | cell-cell fusion (z-score)
49 | Cc1cnc(NC(=O)C2=C([O-])c3ccccc3S(=O)(=O)N2C)s1.[Na+] | inactive: 3.64
50 | Cc1onc(-c2ccccc2)c1C(=O)N[C@@H]1C(=O)N2[C@@H]1SC(C)(C)[C@@H]2C(=O)[O-].[Na+] [Oxacillin sodium] | inactive: 2.59
51 | COCCOC(=O)C1=C(C)NC(C)=C(C(=O)OC(C)C)C1c1cccc([N+](=O)[O-])c1 (stereo unspecified) [Nimodipine] | inactive: 3.25
52 | COCCOC(=O)C1=C(C)NC(C)=C(C(=O)OC(C)C)C1c1cccc([N+](=O)[O-])c1 (stereo unspecified) | inactive: 2.14
53 | Nc1ncnc2c1ncn2[C@@H]1O[C@H](CO)[C@H](O)C1O (stereo partly specified) [Adenosine] | inactive: 1.21
54 | CC(C)/C(O)=C1/C(=O)O[C@@H](c2ccoc2)[C@]2(C)C(O)[C@@H](O)[C@@]34OC5(C)OC67CC(C)(C(O)[C@]6(O)[C@@H](O)[C@]3(O5)C12)[C@H](CC(=O)O)[C@]74C (stereo partly specified) | inactive: 2.36
55 | CCCCOc1cc(C(=O)NCCN(CC)CC)c2ccccc2n1 [Dibucaine] | inactive: 2.65
56 | Cl.Oc1ccc2c3c1OC1[C@@H](O)CC[C@@]4(O)[C@@H](C2)N(CC2CCC2)CC[C@]314 (stereo partly specified) | inactive: 1.03
57 | CCOc1cc(CC(=O)N[C@@H](CC(C)C)c2ccccc2N2CCCCC2)ccc1C(=O)O [Repaglinide] | inactive: 1.02
58 | O=C(Cn1ccnc1[N+](=O)[O-])NCc1ccccc1 [Benznidazole] | inactive: 1.67
59 | CC1(C)C(\C=C(\Cl)Cl)C1C(=O)OCc1cccc(Oc2ccccc2)c1 (stereo unspecified) [Permethrin] | inactive: 2.85
60 | N#CC[C@@H](C1CCCC1)n1cc(-c2ncnc3[nH]ccc23)cn1 [S-Ruxolitinib] | inactive: -0.171
61 | CC[C@H](Nc1ncnc2[nH]cnc12)c1nc2cccc(F)c2c(=O)n1-c1ccccc1 | inactive: 0.588
62 | CN(C)CCCCSC(=N)N | inactive: -0.302
63 | COc1ccccc1OCC(O)CN1CCN(CC(=O)Nc2c(C)cccc2C)CC1 (stereo unspecified) [Ranolazine (Ranexa)] | inactive: 0.778
64 | FC(F)(F)c1ccccc1-n1ccnc1 [1-[2-(Trifluoromethyl)phenyl]imidazole] | inactive: 1.26
65 | COc1cccc(-c2cc(=O)c3cc(OC)ccc3o2)c1 | inactive: 2.39
66 | CCC(NC(C)C)C(O)c1ccc(O)c(O)c1.CS(=O)(=O)O (stereo unspecified) [Isoetharine mesylate salt] | inactive: -1.4
67 | Clc1ccc(COC(Cn2ccnc2)c2ccc(Cl)cc2Cl)c(Cl)c1.O=[N+]([O-])O (stereo unspecified) | active: -3.11
68 | NCC1(CC(=O)O)CCCCC1 [Gabapentin] | inactive: 2.5
69 | CCCCNc1cc(C(=O)O)cc(S(N)(=O)=O)c1Oc1ccccc1 [Bumetanide] | inactive: 2.16
70 | O=c1cccc2n1C[C@@H]1CNC[C@H]2C1 | inactive: 1.17
71 | COCCCC/C(=N\OCCN)c1ccc(C(F)(F)F)cc1.O=C(O)/C=C\C(=O)O [Fluvoxamine maleate] | inactive: 1.86

Given comma-delimited: entries from further up.
Row,SMILES,cell-cell fusion (z-score)
38,C=C(c1ccc(C(=O)O)cc1)c1cc2c(cc1C)C(C)(C)CCC2(C)C [Bexarotene],inactive: 2.04
39,Cl.NCCc1ccc(O)c(O)c1,inactive: -1.46
40,OC[C@H]1O[C@H](n2cnc3c2N=CNC[C@H]3O)C[C@H]1O [Pentostatin],inactive: 0.439
41,COc1ccc([C@@H](C)C(=O)c2ccc(O)cc2O)cc1,inactive: 3.26
42,C[C@@H](c1ncncc1F)[C@](O)(Cn1cncn1)c1ccc(F)cc1F [Voriconazole],inactive: 1.96
43,COc1ccc2nc(S(=O)Cc3ncc(C)c(OC)c3C)[nH]c2c1 (stereo unspecified),inactive: -2.04
44,CC#CCn1c(N2CCC[C@@H](N)C2)nc2c1c(=O)n(Cc1nc(C)c3ccccc3n1)c(=O)n2C.Cl,inactive: 2.57
45,CNC(=O)c1ccc(N2C(=S)N(c3ccc(C#N)c(C(F)(F)F)c3)C(=O)C2(C)C)cc1F [Enzalutamide],inactive: 1.61
46,O=C1c2ccccc2-c2n[nH]c3cccc1c23,inactive: 2.06
47,COc1cc(O)c2c(=O)c(O)c(-c3ccccc3)oc2c1,inactive: 1.95
48,CN1CCCN=C1/C=C/c1cccc(O)c1.O=C(O)c1cc2ccccc2c(Cc2c(O)c(C(=O)O)cc3ccccc23)c1O,inactive: 2.84
49,Cc1cnc(NC(=O)C2=C([O-])c3ccccc3S(=O)(=O)N2C)s1.[Na+],inactive: 3.64
50,Cc1onc(-c2ccccc2)c1C(=O)N[C@@H]1C(=O)N2[C@@H]1SC(C)(C)[C@@H]2C(=O)[O-].[Na+] [Oxacillin sodium],inactive: 2.59
51,COCCOC(=O)C1=C(C)NC(C)=C(C(=O)OC(C)C)C1c1cccc([N+](=O)[O-])c1 (stereo unspecified) [Nimodipine],inactive: 3.25
52,COCCOC(=O)C1=C(C)NC(C)=C(C(=O)OC(C)C)C1c1cccc([N+](=O)[O-])c1 (stereo unspecified),inactive: 2.14
53,Nc1ncnc2c1ncn2[C@@H]1O[C@H](CO)[C@H](O)C1O (stereo partly specified) [Adenosine],inactive: 1.21
54,CC(C)/C(O)=C1/C(=O)O[C@@H](c2ccoc2)[C@]2(C)C(O)[C@@H](O)[C@@]34OC5(C)OC67CC(C)(C(O)[C@]6(O)[C@@H](O)[C@]3(O5)C12)[C@H](CC(=O)O)[C@]74C (stereo partly specified),inactive: 2.36
55,CCCCOc1cc(C(=O)NCCN(CC)CC)c2ccccc2n1 [Dibucaine],inactive: 2.65
